The values that follow come from US5914313A (Merck & Co., Inc., priority 1993, dated 1999).

A short description of the data set: peptide synthesis. To be noted: late stage modification step, trifluoroacetate, acetate or hydrochloride.

With “Glycylaminoethyloxy Ether as the Trifluoroacetate”, the step yield result is given as “Yield=49%”.

In the case of “(s)-2-methoxycarbonyl-2-aminoethyl Ether Trifluoroacetate”, the step yield entry is “Yield=7%”.

Consider “(R)-2-methoxycarbonyl-2-aminoethyl Ether Trifluoroacetate”, for which the step yield entry is “Yield=4%”.

As for “(N-benzyloxycarbonylglycyl)aminoethyl Ether”, the step yield result was “Yield=56%”.

“(R)-3-hydroxy-2-aminopropyl Ether trifluoroacetate of above formula”: the step yield result is reported as “Yield=41%”.
